The list shows only some results of the screen, not a fair sample: it gathers tests that were run many times, whatever their T/C, doses with no T/C, and many T/C values between a quarter and a half above the control. Other doses and runs of a compound stand elsewhere. T/C gives the treated animals as a percentage of the vehicle group. Some entries give survivors of the animals treated and no T/C: the source files T/C as zero there, which appears to mark a toxic dose or a test without result, not a measured value. Some survivor counts are full or nearly so, which does not show that the dose was tolerated: survival well below the control is almost never listed, so the zero probably covers shortened survival too. Survivors were counted at the toxicity check, usually on the fifth day, unless a day is given; later deaths do not show. Schedule codes are those of the source, read here as Q, the interval in days (D) or hours (H), X, the number of doses. Some entries hold several experiments; their values stand side by side, smallest first. Where survival is the endpoint, the PubChem record calls one and a half times the control and up active, and a quarter to a half above the control has no call in these data; cut-offs in other NCI protocols can differ. Some T/C values are followed by the survivors on the day toxicity was checked, most often the fifth; where none is given, no animal had died by that day.
Test system: P388 leukemia ip, CD2F1 mice, survival T/C
Test: NCI In Vivo Anticancer Drug Screen. Data for tumor model P388 Leukemia (intraperitoneal) in CD2F1 (CDF1) mice
Details: T/C endpoint: median survival time, higher T/C = longer survival
[1] = dose: 100.0 mg/kg/injection, schedule: Q01DX009 (ip), vehicle: saline with Tween-80
[2] = dose: 200.0 mg/kg/injection, schedule: Q01DX009 (ip), vehicle: saline with Tween-80
[3] = dose: 200.0 mg/kg/injection, schedule: Q01DX005 (ip), vehicle: saline with Tween-80
[4] = dose: 200.0 mg/kg/injection, schedule: Q01DX009 (ip), vehicle: other
[5] = dose: 240.0 mg/kg/injection, schedule: Q01DX005 (ip), vehicle: Klucel (hydroxypropylcellulose) (HPC)
[6] = dose: 200.0 mg/kg/injection, schedule: Q01DX009 (ip), vehicle: Klucel (hydroxypropylcellulose) (HPC)
[7] = dose: 50.0 mg/kg/injection, schedule: Q01DX005 (ip), vehicle: saline with Tween-80
[8] = dose: 100.0 mg/kg/injection, schedule: Q01DX005 (ip), vehicle: saline with Tween-80
[9] = dose: 200.0 mg/kg/injection, schedule: Q04DX002 (ip), vehicle: saline with Tween-80
[10] = dose: 200.0 mg/kg/injection, schedule: Q04DX003 (ip), vehicle: saline
[11] = dose: 400.0 mg/kg/injection, schedule: Q04DX003 (ip), vehicle: saline
[12] = dose: 100.0 mg/kg/injection, schedule: Q01DX001 (ip), vehicle: Klucel (hydroxypropylcellulose) (HPC)

CC(C)NCC(O)COc1ccccc1C1CCCCC1 (configuration not stated) was tested, and the survivor count [1] was 4 of 6 and the survivor count [2] was 0 of 6.
In the case of CCOc1ccc2c(c1)n([O-])c1cc(Cl)ccc1[n+]2=O, the survivor count [3] is reported as 0 of 6.
For CN1CCN(C)B1N=S(C)(C)=O, the survivor count (dose: 200.0 mg/kg/injection, schedule: Q01DX005 (ip), vehicle: olive oil, sesame oil, peanut oil) was 6 of 6.
CCSC(=O)/C=C\C=[N+](/[O-])OC was tested, and the survivor count [4] was 1 of 6.
For CN(C)c1ccc(SC(=S)NCc2ccccc2)cc1, the survivor count [5] was 4 of 6.
With CCN(CC)C(=S)S[Se](SC(=S)N(CC)CC)(SC(=S)N(CC)CC)SC(=S)N(CC)CC the survivor count [6] was 0 of 6.
With CO[C@@H]1C2=CC=CC=C[C@H]2n2c(=O)n(C)c(=O)n21 the survivor count (dose: 600.0 mg/kg/injection, schedule: Q01DX005 (ip), vehicle: other) was 0 of 6 and the survivor count (dose: 1200.0 mg/kg/injection, schedule: Q01DX005 (ip), vehicle: other) was 0 of 6.
In the case of CSCCC(NC(=O)OC(C)(C)C)C(=O)ON1C(=O)CCC1=O (configuration not stated), the T/C [7] is reported as 125 % of control.
CCOP(=O)(O)SP(=O)(O)OCC.[Zn+2] was tested, and the survivor count [1] was 3 of 6 and 4 of 6 and the survivor count [2] was 1 of 6.
For c1ccc2sc(NC(Nc3nc4ccccc4s3)C34CC5CC(CC(C5)C3)C4)nc2c1, the survivor count [1] was 6 of 6 and the survivor count [2] was 6 of 6.
In the case of NC(=O)c1[nH]c(=O)[nH]c(=O)c1CSc1ccc(Cl)cc1, the survivor count [3] is reported as 5 of 6.
In the case of Cc1ccc(O)c(C(NCCO)c2ccccc2)c1 (configuration not stated), the survivor count (dose: 200.0 mg/kg/injection, schedule: Q04DX002 (ip), vehicle: saline) is reported as 1 of 6 and the survivor count (dose: 400.0 mg/kg/injection, schedule: Q04DX002 (ip), vehicle: saline) is reported as 0 of 6.
c1ccc(-c2cn3ccsc3n2)cc1 was tested, and the T/C [4] was 125 % of control [4 of 6 alive], the survivor count (dose: 400.0 mg/kg/injection, schedule: Q01DX009 (ip), vehicle: other) was 2 of 6 and the survivor count (dose: 800.0 mg/kg/injection, schedule: Q01DX009 (ip), vehicle: other) was 0 of 6. For the same compound, the survivor count (dose: 1600.0 mg/kg/injection, schedule: Q01DX009 (ip), vehicle: other) was 0 of 6.
O=C(O)c1ccc(O)c(C(=O)O)c1 was tested, and the survivor count [2] was 1 of 6.
For Cc1cc(N=Nc2ccc(NC(=O)c3ccc([N+](=O)[O-])cc3)cc2C)ccc1N=Nc1ccc2cc(S(=O)(=O)O)cc(S(=O)(=O)O)c2c1, the T/C [7] was 109, 113, 117 [5 of 6 alive], 120 % of control, the survivor count [8] was 3 of 6 and the survivor count [3] was 2 of 6.
For CNC(=O)Nc1[nH]c(=O)ncc1I, the survivor count [5] was 0 of 6.
CCC/C(=N\NC(N)=Nc1ccc(Cl)cc1)c1ccc(Cl)cc1 was tested, and the survivor count [9] was 1 of 6 and the survivor count (dose: 400.0 mg/kg/injection, schedule: Q04DX002 (ip), vehicle: saline with Tween-80) was 1 of 6.
With Cc1ccc(-c2csc(=NCCc3ccccc3)n2-c2ccc(C)cc2)cc1 the survivor count [9] was 6 of 6.
CSc1nccn2c(C)nnc12 was tested, and the survivor count (dose: 400.0 mg/kg/injection, schedule: Q01DX001 (ip), vehicle: suspension in saline) was 0 of 6.
In the case of CC(C)NC(C)C(C)c1ccccc1 (configuration not stated), the survivor count (dose: 100.0 mg/kg/injection, schedule: Q04DX003 (ip), vehicle: saline) is reported as 1 of 6, the survivor count (dose: 200.0 mg/kg/injection, schedule: Q01DX001 (ip), vehicle: saline) is reported as 0 of 6 and the survivor count [10] is reported as 0 of 6. For the same compound, the survivor count [11] was 0 of 6.
In the case of CC1=CC(=O)C=CC1=Nc1ccc(N(CCCl)CCCl)cc1, the T/C (dose: 200.0 mg/kg/injection, schedule: Q04DX003 (ip), vehicle: Klucel (hydroxypropylcellulose) (HPC)) is reported as 127 % of control.
With O=C(O)c1cccnn1 the survivor count [2] was 1 of 6.
With CC(=O)OC(C(=O)CCl)C(OC(C)=O)C(OC(C)=O)C(=O)CCl (configuration not stated) the survivor count (dose: 50.0 mg/kg/injection, schedule: Q01DX009 (ip), vehicle: distilled water + Tween-80 + alcohol) was 2 of 6, the survivor count (dose: 100.0 mg/kg/injection, schedule: Q01DX009 (ip), vehicle: distilled water + Tween-80 + alcohol) was 0 of 6 and the survivor count (dose: 200.0 mg/kg/injection, schedule: Q01DX009 (ip), vehicle: distilled water + Tween-80 + alcohol) was 0 of 6.
For CCC(CN)C1=Nc2ccccc2C1 (configuration not stated), the survivor count [10] was 2 of 6 and the survivor count [11] was 0 of 6.
With COc1cc2cc(-c3ccc4c(c3)OCO4)[n+](C)cc2cc1OC the survivor count [12] was 2 of 6, the survivor count (dose: 200.0 mg/kg/injection, schedule: Q01DX001 (ip), vehicle: Klucel (hydroxypropylcellulose) (HPC)) was 0 of 6 and the survivor count (dose: 400.0 mg/kg/injection, schedule: Q01DX001 (ip), vehicle: Klucel (hydroxypropylcellulose) (HPC)) was 0 of 6.
For C1CNC(SCC2CC3CC2C2OC32)=N1 (configuration not stated), the survivor count (dose: 200.0 mg/kg/injection, schedule: Q01DX005 (ip), vehicle: Klucel (hydroxypropylcellulose) (HPC)) was 1 of 6.
Oc1ccccc1N=Nc1ccccc1O.[O]=[V] was tested, and the survivor count (dose: 25.0 mg/kg/injection, schedule: Q01DX009 (ip), vehicle: Klucel (hydroxypropylcellulose) (HPC)) was 5 of 6, the survivor count (dose: 50.0 mg/kg/injection, schedule: Q01DX009 (ip), vehicle: Klucel (hydroxypropylcellulose) (HPC)) was 6 of 6 and the survivor count (dose: 100.0 mg/kg/injection, schedule: Q01DX009 (ip), vehicle: Klucel (hydroxypropylcellulose) (HPC)) was 6 of 6. For the same compound, the survivor count [6] was 1 of 6.
With Clc1ccc(C(CCOc2ccccc2Br)Cn2ccnc2)c(Cl)c1 (configuration not stated) the survivor count [1] was 2 of 6 and 3 of 6 and the survivor count [2] was 3 of 6.
CN1CC(O)C2=CC(=O)C(=O)C=C21 (configuration not stated) was tested, and the survivor count (dose: 240.0 mg/kg/injection, schedule: Q01DX005 (ip), vehicle: saline) was 0 of 6.
With Nc1nc2nc[nH]c(=O)c2[nH]1 the survivor count [8] was 0 of 6.
In the case of CC(ON)C(=O)O (configuration not stated), the survivor count (dose: 100.0 mg/kg/injection, schedule: Q01DX005 (ip), vehicle: saline) is reported as 0 of 6 and the survivor count (dose: 200.0 mg/kg/injection, schedule: Q01DX005 (ip), vehicle: saline) is reported as 0 of 6.
For COC(=O)c1nc(N)nc(C(=O)OC)c1C(=O)c1ccccc1, the survivor count [5] was 0 of 6.
For C1=C[N-]c2c3c(ccc2=C1)=CC=C[N-]3.C1=C[N-]c2c3c(ccc2=C1)=CC=C[N-]3.[Cl][Ru][Cl], the survivor count (dose: 12.5 mg/kg/injection, schedule: Q01DX005 (ip), vehicle: saline with Tween-80) was 1 of 6, the survivor count (dose: 25.0 mg/kg/injection, schedule: Q01DX005 (ip), vehicle: saline with Tween-80) was 0 of 6 and the survivor count [7] was 0 of 6. The survivor count [8] was 0 of 6 and the survivor count [3] was 0 of 6.
In the case of O=c1cc(-c2ccc(OCc3ccccc3)c(-c3c(OCc4ccccc4)cc(OCc4ccccc4)c4c(=O)cc(-c5ccc(OCc6ccccc6)cc5)oc34)c2)oc2cc(OCc3ccccc3)cc(OCc3ccccc3)c12, the survivor count [12] is reported as 6 of 6.
